Results as given in PubChem BioAssay AID504444 (National Center for Advancing Translational Sciences (NCATS), 2011).
Hit rate of the full screen: of about 360,000 compounds, about 7,500 (2.1%) were called active. Inconclusive results, whose numbers are uncertain, are shown with a selection of clear calls. Calls come from the whole dose curve; as a rule, active = well fitted inhibition curve with a large enough effect; inconclusive = small, poorly fitted or top-dose-only effect, or effect the other way; inactive = flat fitted curve, though single readings scatter. A potency beside an inconclusive call is a rough fit, not a confirmed value.

assay: Nrf2 qHTS screen for inhibitors; conditions: A549 ARE-Fluc reporter, luciferase luminescence, 18-24 h; series mostly up to 46 µM; note: nearly all actives have a fitted effect of over 60% in size
Outline: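 Quantitative HTS in A549 cells stably bearing an antioxidant response element-firefly luciferase construct. Inhibition of Nrf2-driven transcription was scored by luminescence after 18-24 h of compound exposure at 37 °C.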
Potency is the fitted concentration of half-maximal effect.

Structure (SMILES) | Potency
CN(CCOc1ccccc1)CC(=O)Nc1ccc([N+](=O)[O-])cc1Cl | inactive
Cc1cccc(N(C)S(=O)(=O)c2c(C)[nH]c(C)c2C(=O)N2CCCC2)c1 | inactive
Cc1noc(C)c1S(=O)(=O)N1CCCC(C(=O)Nc2ccc(Cl)cn2)C1 (stereo not drawn) | inconclusive: 18.4 µM [falling, partial curve]
COc1ccccc1/C=C/C(=O)Nc1cccc(S(=O)(=O)NC2=NCCCCC2)c1 | inconclusive: 23.1 µM [falling, single point]
COc1ccc(C(=O)NNC(=O)C2CC=CCC2)cc1 (stereo not drawn) | inconclusive: 20.6 µM [activator, single point]
CCN1CCN(S(=O)(=O)c2ccc(Cl)c(C(=O)N(CCc3ccccc3)Cc3ccccc3)c2)CC1 | inconclusive: 29.1 µM [falling, single point]
Cc1ccc(S(=O)(=O)N2CCOCC2)cc1NC(=O)COc1ccc(C(=O)c2ccccc2)cc1 | inconclusive: 14.6 µM [falling, partial curve, poor fit]
CC(=O)Nc1cccc(C(=O)OC(C)C(=O)NCc2ccc3c(c2)OCO3)c1 (stereo not drawn) | inactive
NC1=NC[C@H](Cc2ccccc2)N1CCCCC1CCCCC1 | inactive
CC(=O)Nc1ccc(-c2cc(C(=O)O)c3ccccc3n2)cc1 | inconclusive: 14.6 µM [falling, partial curve, poor fit]
Cn1nc(-c2ccccc2)c2cc(C(=O)O)sc21 | inconclusive: 32.6 µM [falling, partial curve, poor fit]
COc1ccc(CNC(=O)Cc2cccs2)cc1 | inconclusive: 13 µM [activator, partial curve, poor fit]
Cc1ccc(S(=O)(=O)CCC(=O)NCc2ccc(Cl)cc2)cc1 | inactive
O=C(Nc1cccc(S(=O)(=O)NC2=NCCCCC2)c1)c1ccc(Cl)cc1 | active: 14.6 µM
S=C(NCCC(c1ccccc1)c1ccccc1)Nc1ccccc1Cl | inactive
NC(=O)NC(=O)CSc1nc2sc(-c3ccccc3)cc2c(=O)n1-c1ccccc1 | inconclusive: 20.6 µM [activator, single point]
COc1ccc(N2CCN(C(=O)c3ccc(C)c(Cl)c3)CC2)cc1 | inconclusive: 1.16 µM [falling, full curve, poor fit]
O=C(CCCOc1ccc(Cl)cc1Cl)Nc1ccncc1 | inconclusive: 13 µM [falling, partial curve, poor fit]
Cc1cc(=O)n(C)c(=O)n1CCCCOc1ccc([N+](=O)[O-])cc1 | inconclusive: 29.1 µM [falling, single point]
Cc1ccc(S(=O)(=O)c2cn(CC(=O)Nc3ccccc3C)c3cc4c(cc3c2=O)OCO4)cc1 | inconclusive: 14.6 µM [activator, single point]
CCCCN(CCCC)c1cc(C)nc(-c2ccccc2O)n1 | inactive
Cc1cccc(N2CCN(C(=O)C3CCCN(S(=O)(=O)c4ccc(Br)s4)C3)CC2)c1C (stereo not drawn) | active: 10.3 µM

Structure (SMILES) | Potency
CC(C)(C)c1ccc(C(=O)NCCc2ccccc2)cc1 | inconclusive: 0.231 µM [activator, full curve, poor fit]
COC(=O)c1cc(C(=O)Nc2ccc(S(N)(=O)=O)cc2)cc([N+](=O)[O-])c1 | inactive
NS(=O)(=O)c1ccc(CCNC(=O)CNCCc2ccc(C(F)(F)F)cc2)cc1 | inconclusive: 18.4 µM [falling, single point]
CCN1CCc2nc(NC(=O)c3ccccc3)sc2C1 | inconclusive: 1.3 µM [activator, partial curve, poor fit]
COc1ccc(CCNC(=O)COC(=O)c2cc(S(=O)(=O)N3CCCC3)ccc2O)cc1 | inactive
COc1ccc(F)cc1C(=O)C1CCCN(Cc2c(C)n(C)n(-c3ccccc3)c2=O)C1 (stereo not drawn) | inconclusive: 29.1 µM [activator, single point]
COCCn1c(CN2CCc3ccccc3C2)nc2c1c(=O)n(C)c(=O)n2C | inconclusive: 20.6 µM [falling, partial curve, poor fit]
N#CCCn1cc(/C=C2\NC(=S)N(c3ccccc3)C2=O)c(-c2ccc(-c3ccccc3)cc2)n1 | active: 18.4 µM
CC(C)C1COC(c2cccc3ccccc23)=N1 (stereo not drawn) | inconclusive: 13 µM [activator, partial curve]
COC(=O)c1ccccc1NC(=S)NC(=O)c1ccc(C)cc1 | inconclusive: 23.1 µM [falling, single point]
NS(=O)(=O)c1ccc(CCNC(=O)c2ccc(Cl)s2)cc1 | inactive
Cc1cccc(N2CCN(C(=O)CN3C(=O)COc4ccc(S(=O)(=O)N5CCC(C)CC5)cc43)CC2C)c1 (stereo not drawn) | inactive
Cc1ccc(/C=C2\SC(N3CCN(C(c4ccccc4)c4ccccc4)CC3)=NC2=O)o1 | inconclusive: 18.4 µM [falling, single point]
CCN1CCN(c2ccc(NC(=O)c3ccc4c(c3)OCO4)cc2)CC1 | inconclusive: 11.6 µM [activator, partial curve]
Brc1ccc(OCc2cn3ccccc3n2)cc1 | inconclusive: 9.2 µM [activator, partial curve]
COc1ccc2oc(C(=O)Nc3ccc(N4CCOCC4)cc3)c(C)c2c1 | inconclusive: 6.51 µM [falling, partial curve, poor fit]
CC(C)(C)NC(=O)C[C@H]1C[C@H](C(=O)N2CCCCC2)[C@@]2(CCc3ccccc3)c3[nH]c4cc(-c5ccco5)ccc4c3CCN2C1=O | inconclusive: 29.1 µM [falling, single point]
Cc1cc(C)cc(NC(=O)CSCc2cnn(-c3ccccc3)c2-n2cccc2)c1 | inconclusive: 23.1 µM [falling, single point]
CCOc1ccc(CCNC(=O)c2nc(-c3cccc(F)c3)n3c2CCCCC3)cc1OCC | active: 20.6 µM
Cc1ccc(C)c(OCC(=O)Nc2ccc(S(=O)(=O)Nc3ccccn3)cc2)c1C | inconclusive: 14.6 µM [falling, partial curve, poor fit]
COc1ccccc1CCCNC(=O)C1CCC(=O)N(CCc2ccc(Cl)cc2)C1 (stereo not drawn) | inconclusive: 29.1 µM [falling, single point]

Looked up above.
For Potency, Cc1ccc(/C=C2\SC(N3CCN(C(c4ccccc4)c4ccccc4)CC3)=NC2=O)o1 has inconclusive: 18.4 µM [falling, single point]
For Potency, S=C(NCCC(c1ccccc1)c1ccccc1)Nc1ccccc1Cl has inactive
For Potency, CN(CCOc1ccccc1)CC(=O)Nc1ccc([N+](=O)[O-])cc1Cl has inactive
